Experiment: Body weight of rat groups in the benign prostatic hyperplasia animal model
Assay type: in vivo, male Wister rats
Details: BPH rats, after four weeks of daily oral administration; mean±standard error (n=8)

## CC(C)(C)NC(=O)[C@H]1CC[C@H]2[C@@H]3CC[C@H]4NC(=O)C=C[C@]4(C)[C@H]3CC[C@]12C [BPH+Fi, finasteride]
  Final body weight: 296.934 ± 9.31 g
